Results from article PMC7545515.
These are yes or no findings as the source states them, for the method shown. In cells and extracts the contact can be indirect. Some binding calls cover weakened binding; strength is not graded here.

Amino acid sequences for entries named in this document (tags omitted).
UniProt P47819: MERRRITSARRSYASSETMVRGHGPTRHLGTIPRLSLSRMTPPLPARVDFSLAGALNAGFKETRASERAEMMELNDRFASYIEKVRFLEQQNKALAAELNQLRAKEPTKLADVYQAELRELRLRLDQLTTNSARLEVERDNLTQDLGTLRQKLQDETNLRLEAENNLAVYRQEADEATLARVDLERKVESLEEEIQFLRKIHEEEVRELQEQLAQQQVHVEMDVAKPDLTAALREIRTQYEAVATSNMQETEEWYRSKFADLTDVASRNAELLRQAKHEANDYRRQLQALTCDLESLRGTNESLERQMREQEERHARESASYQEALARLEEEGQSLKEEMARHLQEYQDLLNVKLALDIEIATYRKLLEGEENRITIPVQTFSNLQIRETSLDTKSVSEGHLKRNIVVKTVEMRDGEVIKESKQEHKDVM
UniProt P47863: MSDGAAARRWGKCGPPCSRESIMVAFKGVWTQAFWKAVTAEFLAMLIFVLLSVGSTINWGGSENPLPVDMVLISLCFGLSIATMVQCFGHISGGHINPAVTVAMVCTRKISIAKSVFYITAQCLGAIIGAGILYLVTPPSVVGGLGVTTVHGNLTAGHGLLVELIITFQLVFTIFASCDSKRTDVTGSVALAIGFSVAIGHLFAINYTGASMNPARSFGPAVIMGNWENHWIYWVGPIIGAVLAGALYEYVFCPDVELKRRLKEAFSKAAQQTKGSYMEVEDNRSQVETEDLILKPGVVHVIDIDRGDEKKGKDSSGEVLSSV

Biological target: glial fibrillary acidic protein (rat (endogenous in supraoptic nucleus tissue)) (UniProt P47819)
Experiment: co-IP; anti-GFAP antibody (sc-33673) added to 600 µg of precleared SON tissue lysate, overnight at 4 °C, captured on protein A/G magnetic beads, Western blot; brain slices treated beforehand as control, OGD, TGN-020 (10 µM) or OGD + TGN-020

aquaporin 4 (from UniProt P47863 1-323)
binding: binds
